Assay results from PMC3471852.
Positions count from the first letter of the chain named. Results are given in words; binding and its absence hold for the method and conditions named. In cells and extracts the contact can be indirect. Some binding calls cover weakened binding; strength is not graded here. Tags and fused reporters may be left off the sequences shown.

Legend:
Assay in all cases: co-IP; HEK293 cells co-expressing HA-tagged receptor and Flag-β-arrestin-2, buffer or C3a (100 nM, 37°C, 5 min), chemical cross-linking with disuccinimidyl suberate (0.1 mM, room temperature, 30 min), lysates on anti-HA agarose overnight at 4°C, blot with anti-Flag antibody, densitometry
[1] = target: T1, HA-tagged C3aR mutant MT1 (Ser475/479, Thr480/481 to Ala) (human) (UniProt Q16581)
T1 sequence: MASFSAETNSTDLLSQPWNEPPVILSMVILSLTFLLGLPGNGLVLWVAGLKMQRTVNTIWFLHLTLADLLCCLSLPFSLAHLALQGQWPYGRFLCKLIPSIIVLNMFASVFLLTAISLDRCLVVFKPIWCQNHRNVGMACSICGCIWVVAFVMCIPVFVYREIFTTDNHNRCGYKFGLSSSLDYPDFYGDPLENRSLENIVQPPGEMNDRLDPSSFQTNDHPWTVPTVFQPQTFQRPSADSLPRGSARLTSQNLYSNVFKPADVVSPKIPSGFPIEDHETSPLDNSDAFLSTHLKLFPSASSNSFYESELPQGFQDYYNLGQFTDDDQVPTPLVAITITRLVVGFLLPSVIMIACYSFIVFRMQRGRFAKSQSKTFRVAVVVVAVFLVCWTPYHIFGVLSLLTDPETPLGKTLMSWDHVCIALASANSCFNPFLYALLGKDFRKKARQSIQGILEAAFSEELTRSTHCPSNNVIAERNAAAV

[2] = target: T2, HA-tagged C3aR mutant MT7 (Ser459 plus the residues of MT1 and MT2 to Ala) (human) (UniProt Q16581)
T2 sequence: T1 sequence with S459A, T463A, S465A, T466A, S470A

[3] = target: T3, HA-tagged wild-type C3a receptor (human) (UniProt Q16581)
T3 sequence: T1 sequence with A475S, A479S, A480T, A481T

Substance: Flag-β-arrestin-2 (from UniProt P32121 1-409)
- binding [1]: binds
- binding [2]: no binding
- binding [3]: binds
